Results from publication doi:10.1101/2025.05.28.656718.
Where two headings read alike, the source gives them in different places. No constants are given. Whether binding was seen depends on the method and setting. In cells and extracts the contact can be indirect. Some entries that bind do so weakly or less than the wild type. Tags and fused reporters may be left off the sequences shown.

Amino acid sequences for entries named in this document (tags omitted). A change or cut given only in a name is not applied to a line headed by its entry. Residues count along the entry.
UniProt P14618, 389-531: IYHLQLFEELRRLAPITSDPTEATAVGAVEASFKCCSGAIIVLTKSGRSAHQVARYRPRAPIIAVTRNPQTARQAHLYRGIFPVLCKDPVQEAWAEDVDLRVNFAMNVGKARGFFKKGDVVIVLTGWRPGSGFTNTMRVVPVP
UniProt P14618, whole entry: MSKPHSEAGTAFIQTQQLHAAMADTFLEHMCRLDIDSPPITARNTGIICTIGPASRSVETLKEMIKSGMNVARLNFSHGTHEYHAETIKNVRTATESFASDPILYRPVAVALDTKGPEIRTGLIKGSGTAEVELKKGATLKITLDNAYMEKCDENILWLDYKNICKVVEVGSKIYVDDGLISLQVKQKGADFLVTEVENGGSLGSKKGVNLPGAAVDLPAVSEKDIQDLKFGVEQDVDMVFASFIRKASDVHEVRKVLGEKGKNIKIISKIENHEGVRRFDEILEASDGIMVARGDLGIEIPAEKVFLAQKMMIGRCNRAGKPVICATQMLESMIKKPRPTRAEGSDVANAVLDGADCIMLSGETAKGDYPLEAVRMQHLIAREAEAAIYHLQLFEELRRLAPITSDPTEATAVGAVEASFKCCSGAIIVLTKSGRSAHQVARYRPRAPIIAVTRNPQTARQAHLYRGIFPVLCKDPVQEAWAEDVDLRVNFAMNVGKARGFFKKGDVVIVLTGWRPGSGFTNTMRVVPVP

How the values were obtained:
Experiment in all cases: co-IP
[1] = molecular target: FLAG-PKM2, full length (residues 1-531) (human) (UniProt P14618)
[2] = molecular target: FLAG-PKM2-CTD (residues 389-531) (human) (UniProt P14618)
[3] = molecular target: FLAG-PKM1-CTD (residues 389-531) (human) (UniProt P14618)
[4] = molecular target: FLAG-PKM1, full length (residues 1-531) (human) (UniProt P14618)
[5] = molecular target: FLAG-PKM1, full length (residues 1-531) (human) (UniProt P14618); remark: listed apart in the source
[6] = molecular target: FLAG-PKM1, full length (residues 1-531) (human) (UniProt P14618); remark: listed apart in the source
FLAG-PKM2-Q393K (human) = FLAG-PKM2-Q393K (human) (UniProt P14618)
FLAG-PKM2-R399E (human) = FLAG-PKM2-R399E (human) (UniProt P14618)
[7] = molecular target: HaloTag-N58-PKM1-FLAG (human) (UniProt P14618)

Measured: binding

B1: Doxycycline-inducible, untagged SARM1 (protein, UniProt Q6SZW1 28-724)
chain: LAVPGPDGGGGTGPWWAAGGRGPREVSPGAGTEVQDALERALPELQQALSALKQAGGARAVGAGLAEVFQLVEEAWLLPAVGREVAQGLCDAIRLDGGLDLLLRLLQAPELETRVQAARLLEQILVAENRDRVARIGLGVILNLAKEREPVELARSVAGILEHMFKHSEETCQRLVAAGGLDAVLYWCRRTDPALLRHCALALGNCALHGGQAVQRRMVEKRAAEWLFPLAFSKEDELLRLHACLAVAVLATNKEVEREVERSGTLALVEPLVASLDPGRFARCLVDASDTSQGRGPDDLQRLVPLLDSNRLEAQCIGAFYLCAEAAIKSLQGKTKVFSDIGAIQSLKRLVSYSTNGTKSALAKRALRLLGEEVPRPILPSVPSWKEAEVQTWLQQIGFSKYCESFREQQVDGDLLLRLTEEELQTDLGMKSGITRKRFFRELTELKTFANYSTCDRSNLADWLGSLDPRFRQYTYGLVSCGLDRSLLHRVSEQQLLEDCGIHLGVHRARILTAAREMLHSPLPCTGGKPSGDTPDVFISYRRNSGSQLASLLKVHLQLHGFSVFIDVEKLEAGKFEDKLIQSVMGARNFVLVLSPGALDKCMQDHDCKDWVHKEIVTALSCGKNIVPIIDGFEWPEPQVLPEDMQAVLTFNGIKWSHEYQEATIEKIIRFLQGRSSRDSSAGSDTSLEGAAPMGPT
binds: [1] | [2] | [3] | [4]

B2: SARM1-HA (protein, UniProt Q6SZW1 28-724)
chain: B1 chain
not listed: [7]
binds: all other assays above

B3: SARM1-HaloTag-C58 (protein, UniProt Q6SZW1 28-724)
chain: B1 chain
binds: [7]
